Reference: PubChem BioAssay AID208 (DTP/NCI, 2004)
The list does not hold the whole screen: it is rich in T/C values a quarter to a half above the control, in often repeated tests (any T/C) and in doses without a T/C. Other doses and runs of a compound stand elsewhere. T/C is the treated group as % of the vehicle group. Schedule codes are those of the source, read here as Q, the interval in days (D) or hours (H), X, the number of doses. Some T/C values carry the count of animals alive at the toxicity check (mostly the fifth day); where none is given, no animal had died by that day. Some doses were run more than once; the results are listed from low to high. Some doses have a count of surviving animals in place of a T/C: the source holds a T/C of zero for them, seemingly a mark for toxic or unscored doses. Survivors were counted at the toxicity check, usually on the fifth day, unless a day is given; later deaths do not show.

Test system: HT29 intrarenal xenograft, nude mice, tumor weight change
Assay: NCI In Vivo Anticancer Drug Screen. Data for tumor model HT29;CX-1 Human Adenocarcinoma (MER+) (intrarenal inoculation) in NU/NU BALB/C (nude) mice
Details: T/C endpoint: mean tumor weight change, higher T/C = larger tumour
Procedure: The antitumor activity of compounds was measured in mice bearing transplantable tumors. Survival or tumor size were measured and the results are expressed as the measurement made in the treated group (T) divided by the measurement made in the vehicle treated control group (C). The tumor model used in this assay is HT29;CX-1 Human Adenocarcinoma (MER+) (intrarenal inoculation) in NU/NU BALB/C (nude) mice

[1] = dose: 50.0 mg/kg/injection, schedule: Q04DX004 (sc), vehicle: saline, evaluated on day 15
[2] = dose: 200.0 mg/kg/injection, schedule: Q04DX004 (sc), vehicle: saline
[3] = dose: 200.0 mg/kg/injection, schedule: Q01DX010 (sc), vehicle: saline

Oc1ccc(O)cc1
T/C [1]: 134 % of control
survivor count [2]: 3 of 6 on day 15
survivor count (dose: 400.0 mg/kg/injection, schedule: Q04DX004 (sc), vehicle: saline): 0 of 6 on day 15

CCC1=C[C@H]2CN(CCc3c([nH]c4ccccc34)[C@@](C(=O)OC)(c3cc4c(cc3OC)N(C)[C@H]3[C@@](O)(C(=O)NC)[C@H](OC(C)=O)[C@]5(CC)C=CCN6CC[C@]43[C@@H]65)C2)C1
survivor count (dose: 4.0 mg/kg/injection, schedule: Q04DX004 (sc), vehicle: water): 2 of 6 on day 15
survivor count (dose: 8.0 mg/kg/injection, schedule: Q04DX004 (sc), vehicle: water): 0 of 6 on day 15

[N-]=[N+]=[N-]
survivor count (dose: 24.0 mg/kg/injection, schedule: Q04DX004 (ip), vehicle: water): 1 of 6 on day 15
survivor count (dose: 48.0 mg/kg/injection, schedule: Q04DX004 (ip), vehicle: water): 0 of 6 on day 15

O=P1(N(CCCl)CCCl)NCCCO1 (centres undefined)
survivor count [2]: 0 of 3 on day 15

CCCCc1ccc2nc(NC(=O)OC)[nH]c2c1
T/C (dose: 50.0 mg/kg/injection, schedule: Q01DX010 (sc), vehicle: saline with Tween-80, evaluated on day 11): 127 % of control [2 of 2 alive on day 11]

CC[C@](O)(C(=O)O)c1cc2n(c(=O)c1CO)Cc1cc3ccccc3nc1-2
survivor count (dose: 62.5 mg/kg/injection, schedule: Q04DX004 (sc), vehicle: saline): 3 of 6 on day 15
survivor count (dose: 125.0 mg/kg/injection, schedule: Q04DX004 (sc), vehicle: saline): 1 of 6 on day 15
survivor count (dose: 250.0 mg/kg/injection, schedule: Q04DX004 (sc), vehicle: saline): 0 of 6 on day 15

CCOC(=O)C(CC(C)C)NC(=O)C(Cc1ccc(N(CCCl)CCCl)cc1)NC(C)=O (centres undefined)
survivor count (dose: 400.0 mg/kg/injection, schedule: Q01DX010 (sc), vehicle: saline with Tween-80): 1 of 6 on day 11
survivor count (dose: 800.0 mg/kg/injection, schedule: Q01DX010 (sc), vehicle: saline with Tween-80): 0 of 6 on day 11

O=C1c2ccccc2C(=O)c2c(NCCNCCO)ccc(O)c21
T/C [1]: 128 % of control

CC(=O)OCC(=O)[C@@]12OC(C)(C)O[C@@H]1C[C@H]1[C@@H]3CC(C=O)=C4C=C(OCCCl)CC[C@]4(C)[C@@]3(F)[C@@H](O)C[C@@]12C
survivor count (dose: 200.0 mg/kg/injection, schedule: Q04DX004 (sc), vehicle: Klucel (hydroxypropylcellulose) (HPC)): 0 of 6 on day 15
survivor count (dose: 400.0 mg/kg/injection, schedule: Q04DX004 (sc), vehicle: Klucel (hydroxypropylcellulose) (HPC)): 0 of 6 on day 15

CNC1C(O)C(OC2C(N)CC(N)C(OC3OC(C(C)O)C(O)C(O)C3N)C2O)OCC1(C)O (centres undefined)
T/C (dose: 25.0 mg/kg/injection, schedule: Q04DX004 (ip), vehicle: saline, evaluated on day 15): 133 % of control
survivor count (dose: 100.0 mg/kg/injection, schedule: Q04DX004 (ip), vehicle: saline): 1 of 6 on day 15
survivor count (dose: 200.0 mg/kg/injection, schedule: Q04DX004 (ip), vehicle: saline): 0 of 6 on day 15

Nc1ccc(Cn2ccc3c4c(N)nc(N)nc4ccc32)cc1
survivor count (dose: 75.0 mg/kg/injection, schedule: Q04DX004 (sc), vehicle: saline with Tween-80): 0 of 6 on day 15
survivor count (dose: 150.0 mg/kg/injection, schedule: Q04DX004 (sc), vehicle: saline with Tween-80): 0 of 6 on day 15

CCN1C=C/C(=C\C=C/c2cc[n+](CC)c3ccccc23)c2ccccc21
T/C (dose: 0.25 mg/kg/injection, schedule: Q01DX010 (sc), vehicle: saline, evaluated on day 11): 142 % of control
T/C (dose: 1.0 mg/kg/injection, schedule: Q01DX010 (sc), vehicle: saline, evaluated on day 11): 132 % of control [2 of 2 alive on day 11]
survivor count (dose: 2.0 mg/kg/injection, schedule: Q01DX010 (sc), vehicle: saline): 1 of 3 on day 11

Oc1cccc2ccccc12
survivor count (dose: 300.0 mg/kg/injection, schedule: Q04DX004 (ip), vehicle: water): 2 of 6 on day 15
survivor count (dose: 600.0 mg/kg/injection, schedule: Q04DX004 (ip), vehicle: water): 0 of 6 on day 15
survivor count (dose: 1200.0 mg/kg/injection, schedule: Q04DX004 (ip), vehicle: water): 0 of 6 on day 15

O=C(O)CCCc1ccc(N(CCCl)CCCl)cc1
T/C (dose: 12.0 mg/kg/injection, schedule: Q04DX004 (ip), vehicle: Klucel (hydroxypropylcellulose) (HPC), evaluated on day 15): 38, 43, 56, 85 % of control
T/C (dose: 18.0 mg/kg/injection, schedule: Q04DX004 (ip), vehicle: Klucel (hydroxypropylcellulose) (HPC), evaluated on day 15): 63, 69, 127, 204 % of control [4 of 6 alive on day 15]
T/C (dose: 27.0 mg/kg/injection, schedule: Q04DX004 (ip), vehicle: Klucel (hydroxypropylcellulose) (HPC), evaluated on day 15): 21 [4 of 6 alive on day 15], 29, 32, 125 % of control
survivor count (dose: 40.0 mg/kg/injection, schedule: Q04DX004 (ip), vehicle: Klucel (hydroxypropylcellulose) (HPC)): 3 of 6 on day 15

CCC1=C[C@H]2CN(CCc3c([nH]c4ccccc34)[C@@](C(=O)OC)(c3cc4c(cc3OC)N(C)[C@H]3[C@@](O)(C(=O)OC)[C@H](OC(C)=O)[C@]5(CC)C=CCN6CC[C@]43[C@@H]65)C2)C1
T/C (dose: 3.0 mg/kg/injection, schedule: Q04DX004 (sc), vehicle: water, evaluated on day 15): 136 % of control
survivor count (dose: 24.0 mg/kg/injection, schedule: Q04DX004 (sc), vehicle: water): 2 of 6 on day 15

OCC(O)C(O)C(O)C(O)CO (centres undefined)
T/C (dose: 1200.0 mg/kg/injection, schedule: Q04DX004 (ip), vehicle: saline, evaluated on day 11): 129 % of control

Cn1c(=O)[nH]c2nncnc2c1=O
survivor count (dose: 120.0 mg/kg/injection, schedule: Q04DX004 (sc), vehicle: water): 3 of 6 on day 15
survivor count (dose: 240.0 mg/kg/injection, schedule: Q04DX004 (sc), vehicle: water): 0 of 6 on day 15
survivor count (dose: 480.0 mg/kg/injection, schedule: Q04DX004 (sc), vehicle: water): 0 of 6 on day 15

O=[N+]([O-])c1nccn1CC(O)CO (centres undefined)
T/C (dose: 600.0 mg/kg/injection, schedule: Q04DX004 (sc), vehicle: saline, evaluated on day 15): 127 % of control

C[n+]1ccc2cc(N)c3c4ccccc4sc3c2c1
survivor count (dose: 50.0 mg/kg/injection, schedule: Q04DX004 (sc), vehicle: saline with Tween-80): 0 of 6 on day 15
survivor count (dose: 100.0 mg/kg/injection, schedule: Q04DX004 (sc), vehicle: saline with Tween-80): 0 of 6 on day 15

O=CC(O)C(O)C(O)C(O)CO (centres undefined)
T/C (dose: 300.0 mg/kg/injection, schedule: Q04DX004 (ip), vehicle: saline, evaluated on day 15): 137 % of control
T/C (dose: 1200.0 mg/kg/injection, schedule: Q04DX004 (ip), vehicle: saline, evaluated on day 15): 139 % of control

CN(CO)c1nc(N(C)CO)nc(N(C)CO)n1
survivor count [3]: 0 of 2 on day 11

O=CC(NC(=O)N(CCCl)N=O)C(O)C(O)C(O)CO (centres undefined)
survivor count (dose: 12.0 mg/kg/injection, schedule: Q01DX010 (sc), vehicle: Klucel (hydroxypropylcellulose) (HPC)): 0 of 3 on day 11

COC1/C=C/C=C(/C)Cc2cc(O)c(Cl)c(c2)N(C)C(=O)CC(OC(=O)C(C)C)C2(C)OC2C(C)C2CC1(O)NC(=O)O2 (centres undefined)
survivor count (dose: 16.0 mg/kg/injection, schedule: Q04DX004 (sc), vehicle: saline + alcohol): 2 of 6 on day 15

C=CC(C)(C)n1cc(C2=C(O)C(=O)C(c3cn(C(C)(C)C=C)c4ccccc34)=C(O)C2=O)c2ccccc21
T/C (dose: 50.0 mg/kg/injection, schedule: Q04DX004 (sc), vehicle: Klucel (hydroxypropylcellulose) (HPC), evaluated on day 15): 137 % of control

Cc1cc2cc3cc(C)c(N)cc3nc2cc1N
T/C (dose: 300.0 mg/kg/injection, schedule: Q04DX004 (sc), vehicle: saline with Tween-80, evaluated on day 15): 127 % of control
T/C (dose: 1200.0 mg/kg/injection, schedule: Q04DX004 (sc), vehicle: saline with Tween-80, evaluated on day 15): 134 % of control

COc1ccc2c(ccc3oc([N+](=O)[O-])cc32)c1
T/C (dose: 75.0 mg/kg/injection, schedule: Q04DX004 (sc), vehicle: Klucel (hydroxypropylcellulose) (HPC), evaluated on day 15): 147 % of control
T/C (dose: 300.0 mg/kg/injection, schedule: Q04DX004 (sc), vehicle: Klucel (hydroxypropylcellulose) (HPC), evaluated on day 15): 127 % of control

C=CS(=O)(=O)c1ccccc1
T/C (dose: 25.0 mg/kg/injection, schedule: Q01DX010 (sc), vehicle: saline, evaluated on day 11): 130 % of control
survivor count [3]: 0 of 3 on day 11

NC(Cc1ccc(N(CCCl)CCCl)cc1)C(=O)O (centres undefined)
survivor count (dose: 40.0 mg/kg/injection, schedule: Q04DX004 (sc), vehicle: saline): 0 of 6 on day 15
